Measurements reported in PubChem BioAssay AID504808 (Drosophila RNAi Screening Center, 2011)
In all, the deposit lists about 21,000 reagents; shown is an unselected part of those that have a named target and a result. In the full data, 18 (0.084%) are marked active. 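Raw counts without plate normalisation, one of two replicates; the ratio scores behind the calls were not deposited.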 A plus sign joins genes that one reagent is predicted to hit. The record does not give: the amount of reagent, the time to read-out.

Screen: 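Chromatin factors that keep E2F targets switched off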 (primary screen)
System: Drosophila S2 cells
Reagent: long dsRNA against Drosophila genes
Measured: 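Dual luciferase plate measurements; E2F-specific signal taken as firefly over Renilla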
Direction: E2F firefly: higher = more E2F reporter activity; Renilla normaliser: higher = more normaliser reporter signal
Hit rule: 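Called active if the normalised E2F reporter went up by over 50%; the cutoff is arbitrary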

skd (skuld) [DRSC11898] — E2F firefly, rep 1: 1.40e5; Renilla normaliser, rep 1: 6318; activity call: inactive
Hayan [DRSC19989] — E2F firefly, rep 1: 1.55e5; Renilla normaliser, rep 1: 6027; activity call: inactive
CG31673 [DRSC03207] — E2F firefly, rep 1: 76037; Renilla normaliser, rep 1: 3292; activity call: inactive
CG9517 (retired record) [DRSC20192] — E2F firefly, rep 1: 1.52e5; Renilla normaliser, rep 1: 7022; activity call: inactive
CG9517 (retired record) [DRSC20193] — E2F firefly, rep 1: 1.61e5; Renilla normaliser, rep 1: 6925; activity call: inactive
Incenp (Inner centromere protein) [DRSC06116] — E2F firefly, rep 1: 93892; Renilla normaliser, rep 1: 3639; activity call: inactive
Cndp2 (Cytosolic non-specific dipeptidase 2) [DRSC04873] — E2F firefly, rep 1: 1.13e5; Renilla normaliser, rep 1: 4505; activity call: inactive
kn (knot) [DRSC05505] — E2F firefly, rep 1: 1.39e5; Renilla normaliser, rep 1: 4990; activity call: inactive
kn (knot) [DRSC05507] — E2F firefly, rep 1: 1.35e5; Renilla normaliser, rep 1: 4691; activity call: inactive
kn (knot) [DRSC06196] — E2F firefly, rep 1: 92875; Renilla normaliser, rep 1: 4157; activity call: inactive
kn (knot) [DRSC07637] — E2F firefly, rep 1: 1.01e5; Renilla normaliser, rep 1: 4332; activity call: inactive
Gbs-76A (Glycogen binding subunit 76A) [DRSC11081] — E2F firefly, rep 1: 84271; Renilla normaliser, rep 1: 3569; activity call: inactive
Pif1A + Pif1B [DRSC14142] — E2F firefly, rep 1: 1.23e5; Renilla normaliser, rep 1: 6379; activity call: inactive
Pif1A + Pif1B [DRSC14380] — E2F firefly, rep 1: 72987; Renilla normaliser, rep 1: 3679; activity call: inactive
Pif1A + Pif1B [DRSC14381] — E2F firefly, rep 1: 1.37e5; Renilla normaliser, rep 1: 7193; activity call: inactive
CG3815 [DRSC18324] — E2F firefly, rep 1: 7378; Renilla normaliser, rep 1: 640; activity call: inactive
CG18343 [DRSC06726] — E2F firefly, rep 1: 91209; Renilla normaliser, rep 1: 3797; activity call: inactive
Tmtc1 (Transmembrane O-mannosyltransferase targeting cadherins 1) [DRSC00147] — E2F firefly, rep 1: 1.32e5; Renilla normaliser, rep 1: 5290; activity call: inactive
Tmtc1 (Transmembrane O-mannosyltransferase targeting cadherins 1) [DRSC00151] — E2F firefly, rep 1: 1.13e5; Renilla normaliser, rep 1: 5108; activity call: inactive
Tmtc1 (Transmembrane O-mannosyltransferase targeting cadherins 1) [DRSC00314] — E2F firefly, rep 1: 1.68e5; Renilla normaliser, rep 1: 5942; activity call: inactive
Tmtc1 (Transmembrane O-mannosyltransferase targeting cadherins 1) [DRSC00411] — E2F firefly, rep 1: 1.71e5; Renilla normaliser, rep 1: 5696; activity call: inactive

2 entries already listed, ordered by “E2F firefly, rep 1”, low to high:
kn (knot) [DRSC06196] — E2F firefly, rep 1: 92875; Renilla normaliser, rep 1: 4157; activity call: inactive
kn (knot) [DRSC07637] — E2F firefly, rep 1: 1.01e5; Renilla normaliser, rep 1: 4332; activity call: inactive
